Results published in publication PMC5983870.
No constants are given. Whether binding was seen depends on the method and setting. Binding seen in cells or lysates may run through a third protein.

Protein sequences, listed by entry. Tags and fused reporters are not part of them. Residues count along the entry.
UniProt Q8IUC6: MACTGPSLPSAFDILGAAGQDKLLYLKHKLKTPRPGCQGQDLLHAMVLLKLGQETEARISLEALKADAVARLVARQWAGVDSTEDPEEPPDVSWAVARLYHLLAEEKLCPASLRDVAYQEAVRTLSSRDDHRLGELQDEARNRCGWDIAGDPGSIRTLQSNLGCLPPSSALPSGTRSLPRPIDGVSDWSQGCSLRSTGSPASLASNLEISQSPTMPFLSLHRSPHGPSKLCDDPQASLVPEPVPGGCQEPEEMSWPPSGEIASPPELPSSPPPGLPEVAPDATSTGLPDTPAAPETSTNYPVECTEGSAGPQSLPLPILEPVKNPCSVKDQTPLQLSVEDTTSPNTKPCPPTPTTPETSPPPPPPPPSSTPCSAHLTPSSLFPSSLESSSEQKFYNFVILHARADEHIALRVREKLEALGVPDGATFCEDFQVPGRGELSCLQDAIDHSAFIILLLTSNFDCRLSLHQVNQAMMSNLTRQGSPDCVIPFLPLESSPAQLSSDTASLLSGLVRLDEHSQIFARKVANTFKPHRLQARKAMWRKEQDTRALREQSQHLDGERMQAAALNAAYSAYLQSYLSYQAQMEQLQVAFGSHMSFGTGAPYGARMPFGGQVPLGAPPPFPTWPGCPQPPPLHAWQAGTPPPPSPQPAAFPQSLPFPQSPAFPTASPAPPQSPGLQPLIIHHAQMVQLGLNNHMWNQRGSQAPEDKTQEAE
UniProt Q99IB8, residues 1716-1976: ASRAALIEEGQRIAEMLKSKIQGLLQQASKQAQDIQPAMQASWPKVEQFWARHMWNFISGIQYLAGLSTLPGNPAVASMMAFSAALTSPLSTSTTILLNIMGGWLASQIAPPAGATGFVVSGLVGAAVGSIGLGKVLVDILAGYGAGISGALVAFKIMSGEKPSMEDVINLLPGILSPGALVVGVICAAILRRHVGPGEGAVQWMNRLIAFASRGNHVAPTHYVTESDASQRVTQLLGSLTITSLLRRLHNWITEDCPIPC

Target: TIR-domain-containing adaptor protein including IFN-β (TRIF) (UniProt Q8IUC6)
Assay: co-IP; told only in one sentence of the discussion; no figure, no methods, cells and constructs not described

Substance: Hepatitis C virus NS4B protein (from UniProt Q99IB8 1716-1976)
- binding: no binding
